Test results as given in patent US20200237711A1, “Compositions for Treating and/or Preventing Cancer” (Boston Biomedical, Inc., priority 2017, published 2020).
At least one structure is not confirmed: it was looked up by name or label, or the drawing left a doubt.

Tested on: metabolism of 2-acetylnaphtho[2,3-b]furan-4,9-dione in human liver cytosol (AKR and CR)
Assay: Identification of a metabolic enzyme of 2-acetylnaphtho[2,3-b]furan-4,9-dione (CR/AKR inhibitors in human liver cytosol)
Type: biochemical
Details: CR inhibitor, only at 100 μmol/L (10 or 100 μmol/L tested), 5 minutes (FIG. 8)
Procedure: To a reaction solution obtained by dissolving a human liver cytosol (0.1 mg/mL) and NADPH (1 mmol/L) in a phosphate buffer solution, quercitrin (10 μmol/L or 100 μmol/L), which is a CR inhibitor, and phenolphthalein or medroxyprogesterone 17-acetate (1.0 μmol/L or 10 μmol/L), which is an AKR inhibitor, were added. Further, [^14C]-labeled 2-acetylnaphtho[2,3-b]furan-4,9-dione was added to the reaction solution such that the dione concentration is 0.5 μmol/L. After incubation at 37° C. for 5 minutes, Radio-HPLC was used to measure radioactivity.

C[C@@H]1O[C@@H](Oc2c(-c3ccc(O)c(O)c3)oc3cc(O)cc(O)c3c2=O)[C@H](O)[C@H](O)[C@H]1O [quercitrin]
inhibition of the metabolism of 2-acetylnaphtho[2,3-b]furan-4,9-dione: weakly inhibited
